Experimental data: the supplement of paper PMC8728848
The other results are listed elsewhere or left out.

Columns and labels:
Assay in all cases: glycan array binding signal (z-score within array); higher = stronger binding
Details in all cases: glycan notation: IUPAC condensed, linker removed
[1] = molecular target: Fuc(a1-2)Gal(b1-4)GlcNAc(b1-3)Gal(b1-4)GlcNAc(b1-2)Man(a1-3)[Fuc(a1-2)Gal(b1-4)GlcNAc(b1-3)Gal(b1-4)GlcNAc(b1-2)Man(a1-6)]Man(b1-4)GlcNAc(b1-4)GlcNAc
Outline: (§1)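 The binding signal is a Z-score computed within each array and averaged over linkers. Arrays of the same protein sequence at different concentrations or buffers were also averaged together. Data originate from 3228 arrays in the Consortium for Functional Glycomics database, kept only where the protein sequence was available.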

[2] = molecular target: Fuc(a1-2)Gal(b1-4)GlcNAc(b1-3)Gal(b1-4)GlcNAc(b1-3)Gal(b1-4)GlcNAc
Outline: as §1

[3] = molecular target: Fuc(a1-2)Gal(b1-4)GlcNAc(b1-3)GalNAc
Outline: as §1

[4] = molecular target: Fuc(a1-2)Gal(b1-4)GlcNAc(b1-3)[Fuc(a1-2)Gal(b1-4)GlcNAc(b1-6)]GalNAc
Outline: as §1

[5] = molecular target: Fuc(a1-2)Gal(b1-4)GlcNAc(b1-3)[Fuc(a1-3)[Gal(b1-4)]GlcNAc(b1-6)]Gal(b1-4)Glc
Outline: as §1

[6] = molecular target: Fuc(a1-2)Gal(b1-4)GlcNAc(b1-6)GalNAc
Outline: as §1

[7] = molecular target: Fuc(a1-2)Gal(b1-4)GlcNAc6S
Outline: as §1

[8] = molecular target: Fuc(a1-2)Gal(b1-4)[Fuc(a1-3)]GlcNAc
Outline: as §1

[9] = molecular target: Fuc(a1-2)Gal(b1-4)[Fuc(a1-3)]GlcNAc(b1-2)Man(a1-3)[Fuc(a1-2)Gal(b1-4)[Fuc(a1-3)]GlcNAc(b1-2)Man(a1-6)]Man(b1-4)GlcNAc(b1-4)[Fuc(a1-6)]GlcNAc
Outline: as §1

[10] = molecular target: Fuc(a1-2)Gal(b1-4)[Fuc(a1-3)]GlcNAc(b1-2)[Fuc(a1-2)Gal(b1-4)[Fuc(a1-3)]GlcNAc(b1-4)]Man(a1-3)[Fuc(a1-2)Gal(b1-4)[Fuc(a1-3)]GlcNAc(b1-2)Man(a1-6)]Man(b1-4)GlcNAc(b1-4)GlcNAc
Outline: as §1

[11] = molecular target: Fuc(a1-2)Gal(b1-4)[Fuc(a1-3)]GlcNAc(b1-3)Gal(b1-4)[Fuc(a1-3)]GlcNAc
Outline: as §1

[12] = molecular target: Fuc(a1-2)Gal(b1-4)[Fuc(a1-3)]GlcNAc(b1-3)Gal(b1-4)[Fuc(a1-3)]GlcNAc(b1-3)Gal(b1-4)[Fuc(a1-3)]GlcNAc
Outline: as §1

[13] = molecular target: Fuc(a1-2)Gal(b1-4)[Fuc(a1-3)]GlcNAc(b1-3)GalNAc
Outline: as §1

[14] = molecular target: Fuc(a1-2)Gal(b1-4)[Fuc(a1-3)]GlcNAc(b1-3)[Neu5Ac(a2-6)Gal(b1-4)GlcNAc(b1-6)]Gal(b1-4)Glc
Outline: as §1

[15] = molecular target: Fuc(a1-2)Gal3S(b1-4)GlcNAc
Outline: as §1

[16] = molecular target: Fuc(a1-2)Gal6S(b1-3)GlcNAc
Outline: as §1

[17] = molecular target: Fuc(a1-2)Gal6S(b1-3)GlcNAc6S
Outline: as §1

[18] = molecular target: Fuc(a1-2)Gal6S(b1-4)Glc
Outline: as §1

[19] = molecular target: Fuc(a1-2)Gal6S(b1-4)Glc6S
Outline: as §1

[20] = molecular target: Fuc(a1-2)[Gal(a1-3)]Gal
Outline: as §1

[21] = molecular target: Fuc(a1-2)[Gal(a1-3)]Gal(b1-3)GalNAc
Outline: as §1

[22] = molecular target: Fuc(a1-2)[Gal(a1-3)]Gal(b1-3)GalNAc(b1-3)Gal(a1-4)Gal(b1-4)Glc
Outline: as §1

[23] = molecular target: Fuc(a1-2)[Gal(a1-3)]Gal(b1-3)GlcNAc
Outline: as §1

[24] = molecular target: Fuc(a1-2)[Gal(a1-3)]Gal(b1-3)GlcNAc(b1-2)Man(a1-3)[Fuc(a1-2)[Gal(a1-3)]Gal(b1-3)GlcNAc(b1-2)Man(a1-6)]Man(b1-4)GlcNAc(b1-4)GlcNAc
Outline: as §1

[25] = molecular target: Fuc(a1-2)[Gal(a1-3)]Gal(b1-3)GlcNAc(b1-2)Man(a1-3)[Fuc(a1-2)[Gal(a1-3)]Gal(b1-3)GlcNAc(b1-2)Man(a1-6)]Man(b1-4)GlcNAc(b1-4)[Fuc(a1-6)]GlcNAc
Outline: as §1

[26] = molecular target: Fuc(a1-2)[Gal(a1-3)]Gal(b1-3)GlcNAc(b1-3)GalNAc
Outline: as §1

[27] = molecular target: Fuc(a1-2)[Gal(a1-3)]Gal(b1-3)GlcNAc(b1-6)GalNAc
Outline: as §1

[28] = molecular target: Fuc(a1-2)[Gal(a1-3)]Gal(b1-4)Glc
Outline: as §1

[29] = molecular target: Fuc(a1-2)[Gal(a1-3)]Gal(b1-4)GlcNAc
Outline: as §1

[30] = molecular target: Fuc(a1-2)[Gal(a1-3)]Gal(b1-4)GlcNAc(b1-2)Man
Outline: as §1

B1: Erv41-EDTA (Saccharomyces cerevisiae), Q04651 (protein)
chain: MKFLVNVALVFMVVYISYIYAAAPEHHHHHHDYDIPTTENLYFQGAMGYIDQQYVVDSQVRDTVQINMDIYVNTKCDWLQINVRDQTMDRKLVLEELQLEEMPFFIPYDTKVNDINEIITPELDEILGEAIPAEFREKLDTRSFFDESDPNKAHLPEFNGCHVFGSIPVNRVSGELQITAKSLGYVASRKAPLEELKFNHVINEFSFGDFYPYIDNPLDNTAQFNQDEPLTTYVYYTSVVPTLFKKLGAEVDTNQYSVNDYRYLYKDVAAKGDKMPGIFFKYNFEPLSIVVSDVRL
[1]
  glycan array binding signal (z-score): 0.804
[2]
  glycan array binding signal (z-score): 0.157
[3]
  glycan array binding signal (z-score): 0.327
[4]
  glycan array binding signal (z-score): -0.867
[5]
  glycan array binding signal (z-score): -1.07
[6]
  glycan array binding signal (z-score): -0.761
[7]
  glycan array binding signal (z-score): 0.642
[8]
  glycan array binding signal (z-score): -0.1
[9]
  glycan array binding signal (z-score): -0.831
[10]
  glycan array binding signal (z-score): 1.26
[11]
  glycan array binding signal (z-score): -1.05
[12]
  glycan array binding signal (z-score): -0.801
[13]
  glycan array binding signal (z-score): -0.219
[14]
  glycan array binding signal (z-score): -0.589
[15]
  glycan array binding signal (z-score): -0.093
[16]
  glycan array binding signal (z-score): 0.005
[17]
  glycan array binding signal (z-score): 0.258
[18]
  glycan array binding signal (z-score): -1.5
[19]
  glycan array binding signal (z-score): -0.907
[20]
  glycan array binding signal (z-score): -0.717
[21]
  glycan array binding signal (z-score): -0.045
[22]
  glycan array binding signal (z-score): -0.396
[23]
  glycan array binding signal (z-score): 0.444
[24]
  glycan array binding signal (z-score): -0.073
[25]
  glycan array binding signal (z-score): 0.605
[26]
  glycan array binding signal (z-score): -0.124
[27]
  glycan array binding signal (z-score): 0.15
[28]
  glycan array binding signal (z-score): 0.06
[29]
  glycan array binding signal (z-score): 0.485
[30]
  glycan array binding signal (z-score): 0.358
